# Experimental data published in PubChem BioAssay AID908 (National Center for Advancing Translational Sciences (NCATS), 2007).
# Protein sequences, listed by entry. Tags and fused reporters are not part of them. Residues count along the entry.
# UniProt P55210, 24-198 limits assumed: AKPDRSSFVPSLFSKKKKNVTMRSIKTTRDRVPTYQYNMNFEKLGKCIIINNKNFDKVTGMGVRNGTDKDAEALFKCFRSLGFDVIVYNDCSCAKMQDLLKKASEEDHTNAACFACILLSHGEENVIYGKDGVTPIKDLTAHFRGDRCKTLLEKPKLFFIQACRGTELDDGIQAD
# UniProt P55210, 207-303 limits assumed: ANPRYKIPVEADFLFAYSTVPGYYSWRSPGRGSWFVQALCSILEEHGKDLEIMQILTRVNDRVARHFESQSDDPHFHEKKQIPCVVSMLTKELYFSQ
# Inconclusive results, whose numbers are uncertain, are shown. A potency beside an inconclusive call is a rough fit, not a confirmed value. A note “side channel” means that the fit belongs to a control or component signal, not to the main read-out.
# Biological target: Caspase-7 (Homo sapiens) (UniProt P55210)
# Assay: Concentration-Response Counterscreen for Redox Active Inhibitors of Caspase-7: Cysteine
# Details: caspase-7 enzyme with cysteine, fluorogenic substrate; active = well fitted inhibition curve with a large enough effect in the main read-out, with a control signal flat; inconclusive = small, poorly fitted or top-dose-only effect, or a change in a side signal; inactive = no such curve, though single readings can be large or run the other way
# From the text: NIH Molecular Libraries Screening Centers Network [MLSCN]
# NIH Chemical Genomics Center [NCGC]
# PI Name: Dr. James Wells,
# Dr. Enrique Perez-Paya, Dr.Janice Williams, Dr. Dennis Wolan, a person
# The caspases (Cysteine Aspartyl Protease) comprise a related family of 14 dimeric proteases that are critical mediators of apoptosis (programmed cell death) and inflammation. The caspases represent an important class of drug targets for stroke, ischemia, cancer and inflammatory diseases. […] One goal of this project was to identify compounds that act as allosteric inhibitors via stabilizing the procaspase form of the enzyme. […]
# The biochemical assay was configured using purified caspase 7 at a high enzyme concentration to promote formation of the homodimers and thus facilitate the identification of allosteric inhibitors. […] After initiation of the assay with substrate the plates were rapidly read using an automated robotic system (Kalypsys, Inc.) to maintain consistent timing. […] Product formation was also measured after 1 hour. […]
# Caspase 7 was prepared in buffer (50 mM HEPES pH 7.5, 50 mM KCl, 200 mM NaCl, 10 mM Cys (Aldrich cat# 861677), 0.1% CHAPS) at a concentration of 66.6 nM and 3 uL was dispensed to all wells using black solid Kalypsys 1536-well plates. […] The plates were then exposed using 405 nm excitation/520 nm emission filters for 4 sec and read at 20 sec intervals for 3 min. […]
structure (smiles),measurement,value
C[C@]12Cc3cn4c(nc3C=C1CC[C@H]1[C@@H]2CC[C@@]2(C)[C@H]1CC[C@@]2(O)C#N)nc1ccccc14,Potency,"inconclusive: 15.8 µM [fluorescent, side channel, full curve, poor fit]"
